# Test results published in PubChem BioAssay AID485353 (National Center for Advancing Translational Sciences (NCATS), 2010).
# The whole screen tested about 330,000 compounds, of which about 610 (0.18%) were called active. The inconclusive results got no clear call from the source; some entries with a clear call stand among them for comparison. Calls come from the whole dose curve. Potencies beside an inconclusive call are fits to weak or partial responses and may not hold up.
# Assay: qHTS of Yeast-based Assay for SARS-CoV PLP; note: nearly all actives have a fitted effect of over 55% in size
# Details: S. cerevisiae expressing SARS-CoV PLpro; Potency: growth rescue; series mostly up to 32.9 µM
# Potency is the fitted concentration of half-maximal effect.
row,Structure (SMILES),Potency
1,CCN(CC)c1ccc(NC(=O)c2nc3nc(C)cc(C(F)F)n3n2)cc1,"inconclusive: 3.98 µM [activator, single point]"
2,ClCc1ncc(-c2ccc(Cl)cc2)o1,inactive
3,CNCCCN1c2ccccc2CCc2ccccc21,active: 17.8 µM
4,Cc1noc(C)c1C(=O)OCC(=O)NC1CC1,"inconclusive: 3.98 µM [activator, single point]"
5,O=C(NNC(=O)c1ccc2nc[nH]c2c1)c1ccccc1,inactive
6,O=C(c1cccs1)N1CCN(c2cccc(Cl)c2)CC1,inactive
7,CC12CC(c3ccccc3O1)C(C(=O)OCc1ccccc1)C(=O)N2 (stereo unspecified),inactive
8,Cc1ccc(C(=O)NC(=S)Nc2cc(C(F)(F)F)ccc2Cl)cc1,"inconclusive: 5.01 µM [activator, partial curve, poor fit]"
9,CNC(=O)c1nn(-c2ccc(C)cc2)ccc1=O,inactive
10,CCCN(C(=O)COC(=O)CCOc1ccccc1C)c1c(N)n(Cc2ccccc2)c(=O)[nH]c1=O,"inconclusive: 0.398 µM [activator, full curve, poor fit]"
11,CCOC(=O)N1CCC(NC(=O)CS(=O)Cc2nc(-c3ccc(Cl)cc3)oc2C)CC1 (stereo unspecified),inactive
12,Cc1cc(C)c2c(CC(=O)N3CCCC3)coc2c1,"inconclusive: 4.47 µM [activator, single point]"
13,CC(C)OCCCNC(=O)c1cc(Sc2ccc(F)cc2)nc2ccccc12,"inconclusive: 15.8 µM [activator, single point]"
14,COCC(C)NC(=O)c1cc(-c2ccc(O)cc2)on1 (stereo unspecified),"inconclusive: 2.51 µM [activator, partial curve]"
15,CC(C)[C@H](NC(=O)N1c2ccccc2NC(=O)[C@@H]1C(C)C)C(=O)N[C@H](Cc1ccccc1)C(=O)O,"inconclusive: 20 µM [activator, single point]"
16,Cc1ccc(NC(=S)NCc2cccs2)cc1,"inconclusive: 10 µM [activator, partial curve]"
17,Cc1ccccc1OCC(=O)Nc1cccc(N(C)S(C)(=O)=O)c1,"inconclusive: 20 µM [activator, single point]"
18,CCN(C(=O)CSc1nnnn1-c1ccccc1)c1c(N)n(Cc2ccccc2)c(=O)[nH]c1=O,"inconclusive: 2.82 µM [activator, single point]"
19,CCc1nonc1NC(=O)c1oc2ccc(C)cc2c1C,inactive
20,Cc1cccc(NS(=O)(=O)c2coc(C(N)=O)c2)c1C,"inconclusive: 3.16 µM [activator, single point]"
21,O=C1C=Cc2ccccc2C1=O,"inconclusive: 3.55 µM [activator, partial curve]"

# Ordered by length of the SMILES (rising): some entries from above
row,Structure (SMILES),Potency
16,Cc1ccc(NC(=S)NCc2cccs2)cc1,"inconclusive: 10 µM [activator, partial curve]"
4,Cc1noc(C)c1C(=O)OCC(=O)NC1CC1,"inconclusive: 3.98 µM [activator, single point]"
13,CC(C)OCCCNC(=O)c1cc(Sc2ccc(F)cc2)nc2ccccc12,"inconclusive: 15.8 µM [activator, single point]"
